The supplement of paper PMC10060354, “Discovery of a small molecule ligand of FRS2 that inhibits invasion and tumor growth” (Cellular Oncology, 2022)
Repeats are few or missing, and single values can be far off.

The chains behind the UniProt entries cited, without tags or fusion partners. Where a name states a change or a piece, a line headed by the entry shows the natural chain unless it says otherwise.
UniProt Q9H2D1: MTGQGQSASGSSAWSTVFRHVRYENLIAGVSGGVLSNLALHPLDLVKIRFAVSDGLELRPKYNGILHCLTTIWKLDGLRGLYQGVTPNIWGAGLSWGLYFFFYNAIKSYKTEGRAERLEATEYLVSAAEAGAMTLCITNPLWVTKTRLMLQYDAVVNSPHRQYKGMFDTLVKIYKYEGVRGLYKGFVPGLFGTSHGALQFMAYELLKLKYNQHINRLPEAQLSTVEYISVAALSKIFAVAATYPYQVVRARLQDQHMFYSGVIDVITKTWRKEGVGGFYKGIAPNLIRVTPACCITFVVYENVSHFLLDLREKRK
UniProt P28062: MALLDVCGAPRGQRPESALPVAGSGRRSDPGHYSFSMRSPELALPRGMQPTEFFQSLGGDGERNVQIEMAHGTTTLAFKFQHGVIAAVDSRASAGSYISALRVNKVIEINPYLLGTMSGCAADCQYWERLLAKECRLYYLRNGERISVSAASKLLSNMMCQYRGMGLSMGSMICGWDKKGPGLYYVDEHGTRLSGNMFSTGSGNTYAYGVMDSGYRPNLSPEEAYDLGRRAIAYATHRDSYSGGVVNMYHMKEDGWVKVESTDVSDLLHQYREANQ
UniProt P13928: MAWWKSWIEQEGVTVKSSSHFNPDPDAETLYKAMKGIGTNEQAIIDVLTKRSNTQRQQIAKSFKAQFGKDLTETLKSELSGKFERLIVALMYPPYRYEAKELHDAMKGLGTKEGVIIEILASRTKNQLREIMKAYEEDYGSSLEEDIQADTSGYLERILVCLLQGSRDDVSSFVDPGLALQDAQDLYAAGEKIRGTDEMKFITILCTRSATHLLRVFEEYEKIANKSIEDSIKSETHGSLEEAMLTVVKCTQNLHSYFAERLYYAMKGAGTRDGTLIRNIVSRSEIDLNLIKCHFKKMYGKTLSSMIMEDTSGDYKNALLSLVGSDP
UniProt P51809, whole entry: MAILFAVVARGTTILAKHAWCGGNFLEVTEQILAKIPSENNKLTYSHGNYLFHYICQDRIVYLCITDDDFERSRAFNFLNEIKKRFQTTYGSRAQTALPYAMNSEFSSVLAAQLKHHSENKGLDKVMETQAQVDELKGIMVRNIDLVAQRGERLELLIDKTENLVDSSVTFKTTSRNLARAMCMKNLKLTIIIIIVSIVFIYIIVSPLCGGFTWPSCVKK
UniProt Q96IY1: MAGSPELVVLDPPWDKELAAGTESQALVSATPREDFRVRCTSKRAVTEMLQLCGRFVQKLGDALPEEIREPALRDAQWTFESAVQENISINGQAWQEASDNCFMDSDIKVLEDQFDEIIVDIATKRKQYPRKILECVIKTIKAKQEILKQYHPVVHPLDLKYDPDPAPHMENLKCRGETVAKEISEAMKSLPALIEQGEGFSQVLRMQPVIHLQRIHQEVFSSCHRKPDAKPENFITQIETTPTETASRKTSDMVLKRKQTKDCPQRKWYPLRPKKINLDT
UniProt Q96T37: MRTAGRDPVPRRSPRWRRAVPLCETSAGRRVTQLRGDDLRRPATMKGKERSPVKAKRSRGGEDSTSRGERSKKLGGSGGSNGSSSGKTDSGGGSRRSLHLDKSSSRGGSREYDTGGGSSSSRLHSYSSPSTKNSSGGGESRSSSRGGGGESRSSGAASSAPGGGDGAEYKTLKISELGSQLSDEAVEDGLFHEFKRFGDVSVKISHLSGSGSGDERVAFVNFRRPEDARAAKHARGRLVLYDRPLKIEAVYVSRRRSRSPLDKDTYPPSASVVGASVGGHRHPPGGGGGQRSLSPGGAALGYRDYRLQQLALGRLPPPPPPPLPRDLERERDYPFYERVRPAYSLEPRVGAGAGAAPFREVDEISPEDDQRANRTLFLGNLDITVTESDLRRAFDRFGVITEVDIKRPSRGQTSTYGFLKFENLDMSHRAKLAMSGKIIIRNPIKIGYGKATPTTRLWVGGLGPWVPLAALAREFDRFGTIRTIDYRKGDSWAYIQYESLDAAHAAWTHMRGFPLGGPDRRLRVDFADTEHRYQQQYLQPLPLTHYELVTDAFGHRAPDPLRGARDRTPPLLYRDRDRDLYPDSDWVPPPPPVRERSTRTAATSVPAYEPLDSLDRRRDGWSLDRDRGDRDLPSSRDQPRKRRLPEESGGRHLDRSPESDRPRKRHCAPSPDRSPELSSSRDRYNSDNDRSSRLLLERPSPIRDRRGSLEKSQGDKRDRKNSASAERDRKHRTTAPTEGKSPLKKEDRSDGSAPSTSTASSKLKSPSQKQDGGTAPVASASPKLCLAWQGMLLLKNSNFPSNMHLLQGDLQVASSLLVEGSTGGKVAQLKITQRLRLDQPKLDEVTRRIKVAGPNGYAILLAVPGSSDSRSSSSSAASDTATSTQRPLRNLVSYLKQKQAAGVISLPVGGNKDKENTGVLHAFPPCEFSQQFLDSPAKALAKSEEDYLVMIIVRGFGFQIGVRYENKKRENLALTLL
UniProt Q96IG2: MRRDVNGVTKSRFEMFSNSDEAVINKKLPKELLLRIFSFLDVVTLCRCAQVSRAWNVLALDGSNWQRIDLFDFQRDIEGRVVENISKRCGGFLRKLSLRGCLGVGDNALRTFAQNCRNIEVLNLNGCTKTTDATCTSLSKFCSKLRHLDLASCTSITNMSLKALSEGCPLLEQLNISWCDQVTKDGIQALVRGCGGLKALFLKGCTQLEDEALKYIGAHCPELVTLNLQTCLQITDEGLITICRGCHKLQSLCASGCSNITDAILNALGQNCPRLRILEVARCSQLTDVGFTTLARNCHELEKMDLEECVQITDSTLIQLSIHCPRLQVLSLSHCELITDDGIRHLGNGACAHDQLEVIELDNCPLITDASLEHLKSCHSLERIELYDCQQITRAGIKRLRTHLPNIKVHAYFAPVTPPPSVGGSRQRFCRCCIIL
UniProt P13716: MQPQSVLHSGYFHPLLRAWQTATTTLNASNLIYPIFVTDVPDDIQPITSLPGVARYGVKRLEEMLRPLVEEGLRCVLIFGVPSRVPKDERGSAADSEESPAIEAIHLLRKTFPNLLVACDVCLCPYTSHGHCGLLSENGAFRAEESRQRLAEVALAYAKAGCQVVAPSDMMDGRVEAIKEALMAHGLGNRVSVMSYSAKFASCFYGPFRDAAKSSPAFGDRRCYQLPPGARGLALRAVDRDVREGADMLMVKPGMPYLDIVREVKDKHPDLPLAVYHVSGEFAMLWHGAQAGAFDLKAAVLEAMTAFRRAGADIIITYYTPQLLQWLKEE
UniProt Q9H9Y6, whole entry: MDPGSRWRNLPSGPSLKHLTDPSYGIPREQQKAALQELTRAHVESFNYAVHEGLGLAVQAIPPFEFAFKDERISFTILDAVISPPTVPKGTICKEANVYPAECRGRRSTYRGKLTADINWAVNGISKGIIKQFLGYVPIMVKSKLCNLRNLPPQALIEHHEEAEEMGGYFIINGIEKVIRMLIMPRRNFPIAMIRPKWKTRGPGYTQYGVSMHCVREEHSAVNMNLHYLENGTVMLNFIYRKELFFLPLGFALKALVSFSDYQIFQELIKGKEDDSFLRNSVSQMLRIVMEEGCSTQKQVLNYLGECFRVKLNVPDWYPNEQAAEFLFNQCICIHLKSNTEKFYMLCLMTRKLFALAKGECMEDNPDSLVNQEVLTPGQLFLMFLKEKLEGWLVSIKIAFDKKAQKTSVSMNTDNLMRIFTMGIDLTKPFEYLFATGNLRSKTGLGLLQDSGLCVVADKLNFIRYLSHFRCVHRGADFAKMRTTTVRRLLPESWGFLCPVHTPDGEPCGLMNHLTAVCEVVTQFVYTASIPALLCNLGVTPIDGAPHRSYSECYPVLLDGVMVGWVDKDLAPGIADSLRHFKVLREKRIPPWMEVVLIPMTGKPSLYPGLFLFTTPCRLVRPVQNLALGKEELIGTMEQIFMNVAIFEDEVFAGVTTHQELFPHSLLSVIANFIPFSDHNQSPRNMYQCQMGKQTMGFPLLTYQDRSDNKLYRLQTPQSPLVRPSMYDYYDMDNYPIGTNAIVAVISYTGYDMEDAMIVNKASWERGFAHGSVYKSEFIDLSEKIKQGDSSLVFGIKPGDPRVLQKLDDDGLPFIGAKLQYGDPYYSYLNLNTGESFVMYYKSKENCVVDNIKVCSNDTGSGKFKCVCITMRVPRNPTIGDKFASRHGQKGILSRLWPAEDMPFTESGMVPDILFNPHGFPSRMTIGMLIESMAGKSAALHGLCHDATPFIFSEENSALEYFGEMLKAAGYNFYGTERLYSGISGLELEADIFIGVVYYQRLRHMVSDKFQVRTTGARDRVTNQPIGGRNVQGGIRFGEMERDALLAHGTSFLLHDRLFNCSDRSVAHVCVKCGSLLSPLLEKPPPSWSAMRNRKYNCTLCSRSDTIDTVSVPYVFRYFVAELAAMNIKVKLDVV
UniProt Q9Y333: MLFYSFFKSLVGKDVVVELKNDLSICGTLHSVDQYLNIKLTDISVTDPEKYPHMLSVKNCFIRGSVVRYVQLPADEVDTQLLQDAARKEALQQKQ
UniProt P63096, whole entry: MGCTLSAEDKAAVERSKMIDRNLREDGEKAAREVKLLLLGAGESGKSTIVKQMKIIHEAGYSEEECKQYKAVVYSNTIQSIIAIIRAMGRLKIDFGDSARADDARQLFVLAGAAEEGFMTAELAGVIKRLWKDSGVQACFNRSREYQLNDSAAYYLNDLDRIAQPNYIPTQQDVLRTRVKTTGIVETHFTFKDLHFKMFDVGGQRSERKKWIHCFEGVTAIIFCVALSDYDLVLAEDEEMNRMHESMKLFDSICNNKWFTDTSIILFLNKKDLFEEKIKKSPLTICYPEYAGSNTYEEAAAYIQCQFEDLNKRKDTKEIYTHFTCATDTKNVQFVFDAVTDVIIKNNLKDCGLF
UniProt O60927: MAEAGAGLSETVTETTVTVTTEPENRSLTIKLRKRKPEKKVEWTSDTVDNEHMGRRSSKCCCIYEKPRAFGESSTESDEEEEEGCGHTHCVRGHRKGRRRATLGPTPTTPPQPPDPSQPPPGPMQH
UniProt Q86U86, whole entry: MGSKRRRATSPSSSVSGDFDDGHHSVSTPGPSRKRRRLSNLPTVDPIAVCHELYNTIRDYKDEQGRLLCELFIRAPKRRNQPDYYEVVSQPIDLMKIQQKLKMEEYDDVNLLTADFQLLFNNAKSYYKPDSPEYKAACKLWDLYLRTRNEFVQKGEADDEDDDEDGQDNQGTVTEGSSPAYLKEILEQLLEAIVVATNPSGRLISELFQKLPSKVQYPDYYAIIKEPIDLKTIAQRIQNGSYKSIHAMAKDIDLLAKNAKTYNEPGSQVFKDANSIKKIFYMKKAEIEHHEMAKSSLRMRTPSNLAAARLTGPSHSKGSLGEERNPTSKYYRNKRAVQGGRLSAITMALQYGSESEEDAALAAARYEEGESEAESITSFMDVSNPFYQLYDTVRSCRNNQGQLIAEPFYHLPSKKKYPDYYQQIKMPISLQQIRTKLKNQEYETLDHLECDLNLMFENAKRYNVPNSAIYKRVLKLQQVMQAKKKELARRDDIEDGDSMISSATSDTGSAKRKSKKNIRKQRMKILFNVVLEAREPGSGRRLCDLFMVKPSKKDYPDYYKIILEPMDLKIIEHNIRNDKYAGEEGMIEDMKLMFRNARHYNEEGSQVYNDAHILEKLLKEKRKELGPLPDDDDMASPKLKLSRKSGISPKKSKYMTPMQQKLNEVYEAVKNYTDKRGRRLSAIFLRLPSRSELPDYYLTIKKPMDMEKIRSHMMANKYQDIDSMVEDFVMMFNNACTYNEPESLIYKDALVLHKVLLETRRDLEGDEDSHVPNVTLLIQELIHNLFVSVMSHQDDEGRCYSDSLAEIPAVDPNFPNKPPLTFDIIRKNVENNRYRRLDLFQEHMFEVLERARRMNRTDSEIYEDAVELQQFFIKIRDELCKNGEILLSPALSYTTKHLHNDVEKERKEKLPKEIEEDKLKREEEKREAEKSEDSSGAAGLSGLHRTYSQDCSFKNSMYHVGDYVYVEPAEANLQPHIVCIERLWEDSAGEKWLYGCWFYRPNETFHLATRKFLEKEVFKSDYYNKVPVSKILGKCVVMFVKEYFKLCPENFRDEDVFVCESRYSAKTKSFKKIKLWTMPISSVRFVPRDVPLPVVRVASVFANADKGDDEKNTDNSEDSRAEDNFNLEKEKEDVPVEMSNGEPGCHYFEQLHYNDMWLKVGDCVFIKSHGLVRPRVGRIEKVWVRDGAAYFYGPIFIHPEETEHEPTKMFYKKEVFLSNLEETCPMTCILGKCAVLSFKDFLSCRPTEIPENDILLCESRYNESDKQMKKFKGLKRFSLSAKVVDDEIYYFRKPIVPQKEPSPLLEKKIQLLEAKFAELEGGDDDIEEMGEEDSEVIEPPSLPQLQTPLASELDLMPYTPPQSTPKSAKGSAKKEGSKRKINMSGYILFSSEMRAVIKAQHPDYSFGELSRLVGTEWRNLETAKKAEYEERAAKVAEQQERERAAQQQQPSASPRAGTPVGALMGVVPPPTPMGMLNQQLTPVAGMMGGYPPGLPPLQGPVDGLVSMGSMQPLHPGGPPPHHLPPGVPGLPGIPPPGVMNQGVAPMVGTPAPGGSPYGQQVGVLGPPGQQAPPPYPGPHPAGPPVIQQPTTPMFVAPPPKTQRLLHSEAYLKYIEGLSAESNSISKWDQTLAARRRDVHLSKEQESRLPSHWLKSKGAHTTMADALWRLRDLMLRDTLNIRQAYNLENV

Compound: [O-][N+](C(C1=C(C(O)=C2)NC(C(C=C3)=CC=C3Cl)C4C1C=CC4)=C2Cl)=O
Assay: melting temperature shift (compound 7 minus DMSO); higher = compound stabilises the protein
Settings: 10 µM
Experimental: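 Thermal proteome profiling (TMT mass spectrometry) in intact DAOY medulloblastoma cells or DAOY lysates treated with 10 µM compound 7 or DMSO, heated at 10 temperatures from 40.5 to 73.8 °C for 3 min. Melting curves were fitted with the Bioconductor TPP package, and the melting point difference between compound and vehicle is reported per protein (single curve per condition).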

[1] = system: DAOY cell lysate, treatment time: 20 min, 4 °C
[2] = system: intact DAOY cells, treatment time: 90 min, 37 °C

Row | Target | melting temperature shift [1] [°C] | melting temperature shift [2] [°C]
1 | ATXN2L (UniProt Q8WWM7) | -0.128 | -0.276
2 | VIPAS39 (UniProt Q9H9C1) | -0.614 | -0.271
3 | MLLT1 (UniProt Q03111) | 1.21 | 1.73
4 | PREPL (UniProt Q4J6C6) | 0.223 | 0.153
5 | UniProt P37275 | 2.47 | –
6 | CNOT1 (UniProt A5YKK6) | -0.496 | -0.832
7 | UniProt Q9ULZ3 | -1.13 | 0.382
8 | SLC25A32 (UniProt Q9H2D1) | 0.476 | -2.04
9 | UniProt P28062 | -2.62 | -0.805
10 | UniProt Q9UHV7 | -2.17 | –
11 | DDX59 (UniProt Q5T1V6) | -0.879 | -2.3
12 | METTL14 (UniProt Q9HCE5) | 0.435 | 0.419
13 | FAM21A (UniProt Q641Q2) | 0.542 | 0.277
14 | UniProt P13928 | – | -0.643
15 | UniProt P09104 | -0.918 | –
16 | SEC63 (UniProt Q9UGP8) | 0.971 | -1.41
17 | GOLGB1 (UniProt Q14789) | 1.14 | 1.24
18 | VAMP7 (UniProt P51809) | 0.46 | -0.52
19 | MSH3 (UniProt P20585) | -1.43 | 0.407
20 | UniProt Q58FG0 | – | -0.296
21 | DYNC2H1 (UniProt Q8NCM8) | -1.76 | –
22 | UniProt Q8NFD4 | -2.03 | 1.36
23 | SSR2 (UniProt P43308) | 1.86 | -0.802

Row | Target | melting temperature shift [1] [°C] | melting temperature shift [2] [°C]
24 | TMOD1 (UniProt P28289) | – | -0.336
25 | TPBG (UniProt Q13641) | -0.376 | –
26 | UniProt Q5BKT4 | – | -0.655
27 | HNRNPF (UniProt P52597) | -0.00265 | -0.439
28 | NSL1 (UniProt Q96IY1) | 1.86 | 0.973
29 | UniProt P62341 | -1.46 | –
30 | LDHA (UniProt P00338) | -0.694 | -0.0315
31 | HAUS7 (UniProt Q99871) | 3.13 | –
32 | UniProt Q9BQ49 | -0.231 | –
33 | PCID2 (UniProt Q5JVF3) | -1.2 | -1.37
34 | CERS2 (UniProt Q96G23) | -0.069 | -1.79
35 | UniProt P42677 | -0.978 | -1.59
36 | RBM15 (UniProt Q96T37) | -0.533 | 0.697
37 | UniProt Q9UFF9 | -1.43 | -2.11
38 | UniProt Q99766 | 1.32 | -0.0169
39 | UniProt Q9UBG7 | – | -2.07
40 | POLE3 (UniProt Q9NRF9) | 0.145 | -0.631
41 | KAT7 (UniProt O95251) | -1.32 | –
42 | FBXL20 (UniProt Q96IG2) | -1.07 | -0.464
43 | EXOSC10 (UniProt Q01780) | -0.253 | 0.202
44 | UniProt Q14156 | 0.642 | –
45 | UniProt P04637 | -1.73 | 3.43
46 | UniProt P49750 | 0.934 | -1.91

Individual results from the results shown:
UniProt P42677 – melting temperature shift [1] [°C]: -0.978
NSL1 (UniProt Q96IY1) – melting temperature shift [1] [°C]: 1.86
KAT7 (UniProt O95251) – melting temperature shift [1] [°C]: -1.32
TMOD1 (UniProt P28289) – melting temperature shift [2] [°C]: -0.336
RBM15 (UniProt Q96T37) – melting temperature shift [2] [°C]: 0.697
HNRNPF (UniProt P52597) – melting temperature shift [2] [°C]: -0.439

Carrying on.

Row | Target | melting temperature shift [1] [°C] | melting temperature shift [2] [°C]
47 | DSTN (UniProt P60981) | -0.308 | 1.16
48 | ALAD (UniProt P13716) | 3.24 | –
49 | UniProt P00352 | – | -0.087
50 | PPP2R5C (UniProt Q13362) | -0.538 | -0.28
51 | SCO1 (UniProt O75880) | 0.364 | -0.828
52 | NUDC (UniProt Q9Y266) | -0.355 | 0.144
53 | HSD17B11 (UniProt Q8NBQ5) | 1.15 | -1.01
54 | SLC15A4 (UniProt Q8N697) | – | -0.772
55 | TRIM4 (UniProt Q9C037) | – | 1.05
56 | UniProt Q15417 | -0.207 | -0.473
57 | CHAC2 (UniProt Q8WUX2) | -0.599 | 0.293
58 | RAP2B (UniProt P61225) | 1.22 | -4.44
59 | POLR1B (UniProt Q9H9Y6) | -0.795 | -0.597
60 | UniProt Q14160 | -0.114 | -0.846
61 | CHM (UniProt P24386) | -1.29 | 0.715
62 | DHX15 (UniProt O43143) | -0.0443 | -0.201
63 | RNASEH2A (UniProt O75792) | -0.628 | 0.937
64 | UVRAG (UniProt Q9P2Y5) | -1.34 | -0.321
65 | HMGCS1 (UniProt Q01581) | -0.249 | 0.223
66 | APBB2 (UniProt Q92870) | -0.875 | 4.5
67 | DUS2 (UniProt Q9NX74) | -0.522 | -0.97
68 | UniProt Q5VWX1 | – | 0.389
69 | NDUFB8 (UniProt O95169) | 0.0157 | 0.813

Row | Target | melting temperature shift [1] [°C] | melting temperature shift [2] [°C]
70 | UniProt Q92764 | – | 1.5
71 | LSM2 (UniProt Q9Y333) | 0.144 | 0.546
72 | GNAI1 (UniProt P63096) | 0.0696 | 1.15
73 | RNF2 (UniProt Q99496) | -0.531 | -0.41
74 | GEMIN5 (UniProt Q8TEQ6) | -0.756 | -0.547
75 | SH3PXD2B (UniProt A1X283) | -0.325 | -0.177
76 | UniProt O75317 | – | 0.652
77 | GSPT1 (UniProt P15170) | -0.292 | -0.591
78 | UniProt A5A3E0 | – | 0.635
79 | UniProt O43716 | 1.05 | –
80 | P3H1 (UniProt Q32P28) | 0.611 | 0.805
81 | UniProt P48741 | – | 0.586
82 | ZFP91 (UniProt Q96JP5) | 0.913 | 0.478
83 | LIN54 (UniProt Q6MZP7) | -3.97 | –
84 | TRIM11 (UniProt Q96F44) | -0.496 | –
85 | RRP9 (UniProt O43818) | 1.45 | -0.236
86 | METTL5 (UniProt Q9NRN9) | -2.43 | -1.77
87 | PSPH (UniProt P78330) | 1.83 | -4.2
88 | NAGA (UniProt P17050) | – | 0.307
89 | ILKAP (UniProt Q9H0C8) | -0.786 | -0.0824
90 | NAP1L4 (UniProt Q99733) | -0.878 | -0.0609
91 | PPP1R11 (UniProt O60927) | -1.23 | –
92 | UniProt Q86U86 | -0.268 | –

Row | Target | melting temperature shift [1] [°C] | melting temperature shift [2] [°C]
93 | MCTS1 (UniProt Q9ULC4) | 0.116 | 1.22
94 | EHD4 (UniProt Q9H223) | -0.764 | -1.92
95 | PSME4 (UniProt Q14997) | -1.08 | -0.43
96 | USP24 (UniProt Q9UPU5) | -0.44 | -1.5
97 | MTHFD1L (UniProt Q6UB35) | -1.02 | -2.24
98 | KBTBD2 (UniProt Q8IY47) | -0.0137 | -1.11
99 | HIST1H1C (UniProt P16403) | 1.59 | -1.24
100 | RTN3 (UniProt O95197) | 6.2 | –
101 | ALDH18A1 (UniProt P54886) | 0.00953 | -0.632
102 | TROVE2 (UniProt P10155) | 1.07 | -2.55
103 | TOP3A (UniProt Q13472) | -1.18 | –
104 | CHMP6 (UniProt Q96FZ7) | 1.47 | -2
105 | EOGT (UniProt Q5NDL2) | 0.516 | -0.433
106 | ECSIT (UniProt Q9BQ95) | 0.466 | 0.423
107 | TSEN34 (UniProt Q9BSV6) | -0.479 | -0.209
108 | TMF1 (UniProt P82094) | 3.3 | –
109 | HMGB1 (UniProt P09429) | 0.271 | –
110 | UniProt O60673 | -2.42 | –
111 | UniProt O15321 | 2.39 | -0.442
112 | PPIL2 (UniProt Q13356) | – | 4.77
113 | UniProt Q17R31 | 1.14 | –
114 | TIMM21 (UniProt Q9BVV7) | 3.84 | 0.0812
